Measured values from article doi:10.1101/2025.05.21.655390.
Results are given in words; binding and its absence hold for the method and conditions named. In cells and extracts the contact can be indirect. Some results given as binding are weak or reduced against the parent protein; the word gives no strength.

Chains of the proteins cited; added tags and fusions are not shown.
UniProt Q12905: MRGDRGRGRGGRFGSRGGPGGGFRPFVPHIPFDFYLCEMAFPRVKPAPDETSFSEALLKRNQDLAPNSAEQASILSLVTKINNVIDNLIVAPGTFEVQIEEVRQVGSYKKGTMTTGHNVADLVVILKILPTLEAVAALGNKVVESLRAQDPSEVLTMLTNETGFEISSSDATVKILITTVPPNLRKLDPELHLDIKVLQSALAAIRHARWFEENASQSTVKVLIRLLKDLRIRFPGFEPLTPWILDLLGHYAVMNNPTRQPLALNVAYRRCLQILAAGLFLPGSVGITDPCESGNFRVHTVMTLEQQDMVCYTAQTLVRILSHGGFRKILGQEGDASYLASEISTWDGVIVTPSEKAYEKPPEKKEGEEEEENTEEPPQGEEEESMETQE
UniProt Q08211: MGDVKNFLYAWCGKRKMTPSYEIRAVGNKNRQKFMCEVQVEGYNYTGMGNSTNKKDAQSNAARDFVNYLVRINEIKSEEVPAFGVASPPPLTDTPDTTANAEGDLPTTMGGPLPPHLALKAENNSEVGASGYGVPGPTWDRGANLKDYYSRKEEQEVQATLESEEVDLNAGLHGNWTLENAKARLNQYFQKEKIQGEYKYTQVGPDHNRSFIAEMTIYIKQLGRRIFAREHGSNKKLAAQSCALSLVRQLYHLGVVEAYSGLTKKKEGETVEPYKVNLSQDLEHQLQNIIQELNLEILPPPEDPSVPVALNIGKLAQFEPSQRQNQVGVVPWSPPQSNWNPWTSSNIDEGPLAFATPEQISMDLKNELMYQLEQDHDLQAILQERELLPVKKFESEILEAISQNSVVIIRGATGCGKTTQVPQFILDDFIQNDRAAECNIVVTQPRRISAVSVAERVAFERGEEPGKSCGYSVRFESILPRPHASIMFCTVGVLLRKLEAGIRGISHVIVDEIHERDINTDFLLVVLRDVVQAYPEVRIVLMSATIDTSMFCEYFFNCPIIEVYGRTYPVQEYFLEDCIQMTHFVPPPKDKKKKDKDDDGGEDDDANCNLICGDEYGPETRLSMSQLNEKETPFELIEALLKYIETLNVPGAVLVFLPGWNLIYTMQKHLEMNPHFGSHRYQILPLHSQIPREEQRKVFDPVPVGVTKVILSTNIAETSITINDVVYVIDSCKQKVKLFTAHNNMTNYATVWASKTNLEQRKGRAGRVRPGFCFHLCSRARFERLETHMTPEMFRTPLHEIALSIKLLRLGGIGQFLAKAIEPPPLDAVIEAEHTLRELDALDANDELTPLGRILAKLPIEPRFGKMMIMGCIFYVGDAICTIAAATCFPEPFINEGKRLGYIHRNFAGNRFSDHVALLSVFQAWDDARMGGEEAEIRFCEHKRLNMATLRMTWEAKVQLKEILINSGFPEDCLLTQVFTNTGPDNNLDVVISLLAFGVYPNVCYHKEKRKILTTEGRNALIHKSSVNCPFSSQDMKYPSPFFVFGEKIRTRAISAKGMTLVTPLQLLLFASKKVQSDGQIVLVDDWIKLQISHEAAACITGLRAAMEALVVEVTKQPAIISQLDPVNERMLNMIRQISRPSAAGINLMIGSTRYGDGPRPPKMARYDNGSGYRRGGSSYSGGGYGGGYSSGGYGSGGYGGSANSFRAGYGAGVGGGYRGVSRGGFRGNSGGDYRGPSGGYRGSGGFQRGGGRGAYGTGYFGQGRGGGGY
UniProt Q15717: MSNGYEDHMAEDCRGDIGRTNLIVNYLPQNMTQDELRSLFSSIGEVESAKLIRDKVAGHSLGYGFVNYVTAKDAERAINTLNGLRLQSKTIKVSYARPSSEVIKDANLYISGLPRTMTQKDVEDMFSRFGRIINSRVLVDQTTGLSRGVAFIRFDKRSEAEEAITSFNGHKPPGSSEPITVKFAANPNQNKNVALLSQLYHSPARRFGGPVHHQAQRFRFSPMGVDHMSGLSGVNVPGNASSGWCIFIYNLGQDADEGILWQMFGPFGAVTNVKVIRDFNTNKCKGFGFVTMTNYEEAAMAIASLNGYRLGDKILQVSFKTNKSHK
UniProt P67809: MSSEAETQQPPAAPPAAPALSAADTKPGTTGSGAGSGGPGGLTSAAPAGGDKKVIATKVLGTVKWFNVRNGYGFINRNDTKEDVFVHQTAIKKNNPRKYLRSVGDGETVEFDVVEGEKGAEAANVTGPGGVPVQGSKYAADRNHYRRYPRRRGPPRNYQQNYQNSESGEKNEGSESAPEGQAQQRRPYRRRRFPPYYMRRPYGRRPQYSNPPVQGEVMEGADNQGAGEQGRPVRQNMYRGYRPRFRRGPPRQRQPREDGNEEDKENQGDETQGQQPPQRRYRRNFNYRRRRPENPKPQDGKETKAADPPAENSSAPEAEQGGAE
UniProt Q7Z333: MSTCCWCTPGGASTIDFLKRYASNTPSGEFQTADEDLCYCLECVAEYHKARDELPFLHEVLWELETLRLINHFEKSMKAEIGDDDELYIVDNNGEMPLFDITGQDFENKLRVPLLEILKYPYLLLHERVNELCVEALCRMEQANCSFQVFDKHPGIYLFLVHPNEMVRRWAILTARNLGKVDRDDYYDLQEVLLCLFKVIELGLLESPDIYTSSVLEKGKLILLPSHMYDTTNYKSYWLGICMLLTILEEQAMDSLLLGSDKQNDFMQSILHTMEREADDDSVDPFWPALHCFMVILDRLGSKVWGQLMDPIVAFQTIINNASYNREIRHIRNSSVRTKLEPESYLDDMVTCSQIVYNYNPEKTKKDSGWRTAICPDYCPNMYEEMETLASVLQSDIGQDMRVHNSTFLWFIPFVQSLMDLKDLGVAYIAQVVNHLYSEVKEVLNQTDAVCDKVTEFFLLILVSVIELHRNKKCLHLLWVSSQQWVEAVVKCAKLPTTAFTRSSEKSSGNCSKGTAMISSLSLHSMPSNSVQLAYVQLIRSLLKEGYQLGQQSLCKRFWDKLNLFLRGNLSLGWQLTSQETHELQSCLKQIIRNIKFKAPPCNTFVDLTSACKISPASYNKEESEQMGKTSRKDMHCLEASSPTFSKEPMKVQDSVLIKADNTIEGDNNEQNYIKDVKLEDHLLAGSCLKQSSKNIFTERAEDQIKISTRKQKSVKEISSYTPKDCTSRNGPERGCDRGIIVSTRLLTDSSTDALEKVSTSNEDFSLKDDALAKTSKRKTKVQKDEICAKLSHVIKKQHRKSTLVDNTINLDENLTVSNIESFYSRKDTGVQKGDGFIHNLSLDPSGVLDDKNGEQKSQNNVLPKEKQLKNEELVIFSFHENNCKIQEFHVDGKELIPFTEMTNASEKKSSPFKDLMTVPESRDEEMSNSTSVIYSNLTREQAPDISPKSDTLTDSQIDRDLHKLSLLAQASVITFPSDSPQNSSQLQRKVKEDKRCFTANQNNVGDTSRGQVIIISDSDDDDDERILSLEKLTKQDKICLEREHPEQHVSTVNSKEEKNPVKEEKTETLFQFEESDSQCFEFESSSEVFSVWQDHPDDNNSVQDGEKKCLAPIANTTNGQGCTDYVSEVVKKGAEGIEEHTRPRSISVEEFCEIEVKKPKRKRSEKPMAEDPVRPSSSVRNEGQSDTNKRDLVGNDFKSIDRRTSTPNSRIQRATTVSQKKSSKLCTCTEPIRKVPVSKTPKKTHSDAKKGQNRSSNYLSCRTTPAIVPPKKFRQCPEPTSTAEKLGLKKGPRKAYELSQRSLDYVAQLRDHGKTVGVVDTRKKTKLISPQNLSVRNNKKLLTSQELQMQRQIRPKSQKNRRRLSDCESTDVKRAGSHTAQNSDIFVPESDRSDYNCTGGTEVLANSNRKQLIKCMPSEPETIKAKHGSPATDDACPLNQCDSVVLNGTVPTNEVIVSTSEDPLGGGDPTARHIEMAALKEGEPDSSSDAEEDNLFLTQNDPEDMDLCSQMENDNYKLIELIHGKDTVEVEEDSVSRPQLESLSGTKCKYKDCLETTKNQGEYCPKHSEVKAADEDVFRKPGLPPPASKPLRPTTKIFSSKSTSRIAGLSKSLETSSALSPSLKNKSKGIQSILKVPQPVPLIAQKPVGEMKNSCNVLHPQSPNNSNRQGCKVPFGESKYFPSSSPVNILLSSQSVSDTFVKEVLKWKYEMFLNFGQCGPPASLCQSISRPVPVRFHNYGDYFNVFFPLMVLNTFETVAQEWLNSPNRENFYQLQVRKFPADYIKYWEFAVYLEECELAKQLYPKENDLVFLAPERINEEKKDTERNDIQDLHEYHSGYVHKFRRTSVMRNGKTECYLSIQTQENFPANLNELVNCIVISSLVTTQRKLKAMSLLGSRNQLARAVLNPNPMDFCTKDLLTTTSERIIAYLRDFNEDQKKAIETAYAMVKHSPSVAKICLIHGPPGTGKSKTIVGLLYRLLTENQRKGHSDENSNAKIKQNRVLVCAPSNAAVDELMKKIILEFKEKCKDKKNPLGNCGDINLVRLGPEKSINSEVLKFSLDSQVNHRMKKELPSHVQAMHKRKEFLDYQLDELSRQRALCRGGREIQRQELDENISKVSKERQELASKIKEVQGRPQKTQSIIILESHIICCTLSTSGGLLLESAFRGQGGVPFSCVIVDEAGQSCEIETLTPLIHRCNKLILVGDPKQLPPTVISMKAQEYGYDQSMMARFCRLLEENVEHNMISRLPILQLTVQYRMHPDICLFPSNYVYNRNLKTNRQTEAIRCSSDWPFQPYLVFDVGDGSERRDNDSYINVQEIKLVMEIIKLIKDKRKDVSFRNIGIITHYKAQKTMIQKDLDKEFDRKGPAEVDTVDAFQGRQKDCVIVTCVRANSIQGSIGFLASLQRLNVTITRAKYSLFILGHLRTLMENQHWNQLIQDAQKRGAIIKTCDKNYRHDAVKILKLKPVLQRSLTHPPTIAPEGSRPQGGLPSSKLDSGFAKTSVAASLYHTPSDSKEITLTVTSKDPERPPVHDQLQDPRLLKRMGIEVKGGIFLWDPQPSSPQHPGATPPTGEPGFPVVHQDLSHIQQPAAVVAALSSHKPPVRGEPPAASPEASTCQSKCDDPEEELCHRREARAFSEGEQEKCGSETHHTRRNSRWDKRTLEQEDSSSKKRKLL

How the values were obtained:
[1] = biological target: interleukin enhancer-binding factor 2 (ILF2) (human (endogenous in DLD1)) (UniProt Q12905); test: pull-down
[2] = biological target: DExH-box helicase 9 (DHX9) (human (endogenous in DLD1)) (UniProt Q08211); test: co-IP + proximity ligation

For HuR (from UniProt Q15717 1-326), the binding [1] was “binds”.
With YB1 (from UniProt P67809 1-324) the binding [1] was “binds”.
“Senataxin (SETX) (from UniProt Q7Z333 1-2677) (enzyme)” was tested, and the binding [1] was “no binding” and the binding [2] was “binds”.
